Results published in article PMC8226082.
Results are given in words; binding and its absence hold for the method and conditions named. Binding seen in cells or lysates may run through a third protein. Some binding calls cover weakened binding; strength is not graded here.

Chains of the proteins cited; added tags and fusions are not shown.
UniProt Q9QX29: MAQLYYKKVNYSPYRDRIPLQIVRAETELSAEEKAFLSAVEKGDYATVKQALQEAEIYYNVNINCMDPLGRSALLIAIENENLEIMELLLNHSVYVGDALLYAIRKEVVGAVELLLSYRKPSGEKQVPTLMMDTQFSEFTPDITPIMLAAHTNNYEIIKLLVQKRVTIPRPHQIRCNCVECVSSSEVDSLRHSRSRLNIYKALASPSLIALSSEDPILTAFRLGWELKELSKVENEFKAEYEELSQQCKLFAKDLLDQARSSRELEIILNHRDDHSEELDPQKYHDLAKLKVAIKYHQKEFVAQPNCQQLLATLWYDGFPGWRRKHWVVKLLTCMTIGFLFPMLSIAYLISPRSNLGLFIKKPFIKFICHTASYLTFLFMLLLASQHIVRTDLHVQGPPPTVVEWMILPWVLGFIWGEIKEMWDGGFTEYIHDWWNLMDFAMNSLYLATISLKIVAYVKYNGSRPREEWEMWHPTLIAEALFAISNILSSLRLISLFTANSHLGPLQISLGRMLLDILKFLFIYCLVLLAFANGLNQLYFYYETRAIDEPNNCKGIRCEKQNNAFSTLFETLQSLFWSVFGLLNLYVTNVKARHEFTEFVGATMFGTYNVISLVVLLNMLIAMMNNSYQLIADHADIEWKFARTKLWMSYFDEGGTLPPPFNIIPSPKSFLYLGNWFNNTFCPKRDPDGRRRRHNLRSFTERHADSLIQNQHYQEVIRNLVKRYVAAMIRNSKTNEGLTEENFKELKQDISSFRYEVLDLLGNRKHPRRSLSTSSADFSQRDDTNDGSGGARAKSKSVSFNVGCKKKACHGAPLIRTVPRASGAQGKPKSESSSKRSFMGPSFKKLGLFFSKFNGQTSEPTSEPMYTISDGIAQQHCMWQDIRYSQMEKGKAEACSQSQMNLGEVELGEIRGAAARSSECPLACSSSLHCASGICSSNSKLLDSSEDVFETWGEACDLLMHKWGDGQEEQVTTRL
UniProt O88427: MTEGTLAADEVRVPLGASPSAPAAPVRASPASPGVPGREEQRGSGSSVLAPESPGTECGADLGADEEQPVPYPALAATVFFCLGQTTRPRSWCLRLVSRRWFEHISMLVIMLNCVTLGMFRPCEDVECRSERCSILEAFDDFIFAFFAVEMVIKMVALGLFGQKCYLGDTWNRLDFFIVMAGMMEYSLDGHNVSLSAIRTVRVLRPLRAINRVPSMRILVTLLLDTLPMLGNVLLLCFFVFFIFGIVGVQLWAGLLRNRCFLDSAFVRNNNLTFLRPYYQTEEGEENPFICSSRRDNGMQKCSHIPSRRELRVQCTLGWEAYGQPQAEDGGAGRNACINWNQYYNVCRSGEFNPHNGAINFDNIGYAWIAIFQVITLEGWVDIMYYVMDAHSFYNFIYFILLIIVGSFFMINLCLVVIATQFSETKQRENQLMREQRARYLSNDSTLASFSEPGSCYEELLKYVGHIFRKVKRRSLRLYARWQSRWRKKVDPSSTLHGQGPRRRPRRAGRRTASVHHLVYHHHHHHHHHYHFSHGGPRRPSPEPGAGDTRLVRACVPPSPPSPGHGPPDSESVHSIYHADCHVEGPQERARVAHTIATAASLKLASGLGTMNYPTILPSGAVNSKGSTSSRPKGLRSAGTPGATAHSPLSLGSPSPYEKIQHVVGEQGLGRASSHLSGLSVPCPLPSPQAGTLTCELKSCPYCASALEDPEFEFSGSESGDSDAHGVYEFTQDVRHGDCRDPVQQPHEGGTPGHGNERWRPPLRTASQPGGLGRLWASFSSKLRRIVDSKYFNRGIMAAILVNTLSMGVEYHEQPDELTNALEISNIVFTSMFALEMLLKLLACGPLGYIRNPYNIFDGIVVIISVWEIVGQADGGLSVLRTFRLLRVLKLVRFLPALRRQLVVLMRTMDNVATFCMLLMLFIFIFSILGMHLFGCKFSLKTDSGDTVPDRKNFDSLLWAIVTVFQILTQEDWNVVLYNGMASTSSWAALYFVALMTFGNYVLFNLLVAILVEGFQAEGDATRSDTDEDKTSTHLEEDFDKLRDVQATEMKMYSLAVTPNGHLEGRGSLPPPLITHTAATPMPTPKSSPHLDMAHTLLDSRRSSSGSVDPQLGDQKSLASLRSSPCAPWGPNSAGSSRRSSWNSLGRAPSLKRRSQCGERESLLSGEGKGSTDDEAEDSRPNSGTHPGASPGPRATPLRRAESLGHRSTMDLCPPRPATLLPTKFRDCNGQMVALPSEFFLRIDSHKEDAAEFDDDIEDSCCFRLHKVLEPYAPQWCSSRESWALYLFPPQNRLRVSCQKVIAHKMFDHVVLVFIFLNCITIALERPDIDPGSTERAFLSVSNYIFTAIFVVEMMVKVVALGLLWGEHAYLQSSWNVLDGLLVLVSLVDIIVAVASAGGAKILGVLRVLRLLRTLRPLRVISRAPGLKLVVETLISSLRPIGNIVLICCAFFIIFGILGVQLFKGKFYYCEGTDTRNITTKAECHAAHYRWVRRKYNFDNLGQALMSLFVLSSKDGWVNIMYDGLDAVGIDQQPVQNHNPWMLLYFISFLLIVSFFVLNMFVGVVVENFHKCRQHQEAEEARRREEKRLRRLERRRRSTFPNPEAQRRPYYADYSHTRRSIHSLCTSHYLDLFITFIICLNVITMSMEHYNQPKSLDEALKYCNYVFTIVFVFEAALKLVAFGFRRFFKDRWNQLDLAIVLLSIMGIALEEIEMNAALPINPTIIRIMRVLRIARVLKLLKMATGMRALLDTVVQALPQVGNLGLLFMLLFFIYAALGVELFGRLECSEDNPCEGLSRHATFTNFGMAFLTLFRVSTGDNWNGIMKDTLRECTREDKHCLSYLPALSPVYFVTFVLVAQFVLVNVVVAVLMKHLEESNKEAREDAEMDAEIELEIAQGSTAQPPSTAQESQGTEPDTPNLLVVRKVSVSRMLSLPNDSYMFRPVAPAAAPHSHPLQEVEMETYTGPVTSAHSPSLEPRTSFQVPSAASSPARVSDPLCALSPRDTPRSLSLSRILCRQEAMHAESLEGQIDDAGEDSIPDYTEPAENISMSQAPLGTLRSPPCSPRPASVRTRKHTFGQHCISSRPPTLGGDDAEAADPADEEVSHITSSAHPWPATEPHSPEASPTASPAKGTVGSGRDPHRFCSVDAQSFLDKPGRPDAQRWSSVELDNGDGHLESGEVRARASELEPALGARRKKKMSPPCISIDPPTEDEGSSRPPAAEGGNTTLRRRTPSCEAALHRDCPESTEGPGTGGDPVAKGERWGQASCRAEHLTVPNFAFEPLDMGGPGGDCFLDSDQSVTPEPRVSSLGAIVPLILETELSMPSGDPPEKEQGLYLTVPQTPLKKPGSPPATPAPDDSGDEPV
UniProt Q61056: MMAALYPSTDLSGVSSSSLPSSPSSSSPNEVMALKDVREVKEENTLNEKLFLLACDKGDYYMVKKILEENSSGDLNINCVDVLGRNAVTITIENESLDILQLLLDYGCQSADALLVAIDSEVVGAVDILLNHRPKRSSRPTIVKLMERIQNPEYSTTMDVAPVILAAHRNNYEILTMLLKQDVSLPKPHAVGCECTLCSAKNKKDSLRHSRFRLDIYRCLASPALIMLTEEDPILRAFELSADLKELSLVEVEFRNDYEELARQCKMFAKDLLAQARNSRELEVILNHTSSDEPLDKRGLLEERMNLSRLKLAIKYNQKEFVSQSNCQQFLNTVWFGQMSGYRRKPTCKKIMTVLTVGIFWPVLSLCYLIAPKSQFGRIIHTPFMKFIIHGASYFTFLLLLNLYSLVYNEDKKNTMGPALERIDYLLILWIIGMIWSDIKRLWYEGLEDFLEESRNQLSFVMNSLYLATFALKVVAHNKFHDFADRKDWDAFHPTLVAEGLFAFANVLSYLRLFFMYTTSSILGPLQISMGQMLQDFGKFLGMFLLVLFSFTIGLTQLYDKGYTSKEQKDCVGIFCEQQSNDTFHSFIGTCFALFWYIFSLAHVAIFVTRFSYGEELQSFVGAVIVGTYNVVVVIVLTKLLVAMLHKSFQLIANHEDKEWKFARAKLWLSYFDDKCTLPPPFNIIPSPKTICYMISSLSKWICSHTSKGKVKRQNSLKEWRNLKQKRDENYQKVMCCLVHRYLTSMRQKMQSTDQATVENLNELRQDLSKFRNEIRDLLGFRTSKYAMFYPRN

Experiments:
[1] = target: TRPC5 channel (Transient Receptor Potential Cation channel 5) (mouse (endogenous in brain and hypothalamus)) (UniProt Q9QX29); assay: co-IP; adult mouse whole brain and hypothalamus homogenates; primary antibody (α1G, α1H, TRPC5, TRPC1 or control IgG) at 4°C, protein A/G agarose beads, elution in 0.1 M glycine pH 3.5, Western blot; n = 3
[2] = target: CaV3.2 (α1H) T-type calcium channel (mouse (endogenous in brain and hypothalamus)) (UniProt O88427); assay: as above

Substance | binding [1] | binding [2]
CaV3.2 (α1H) T-type calcium channel (from UniProt O88427 1-2365) | binds | 
TRPC1 channel (Transient Receptor Potential Cation channel 1) (from UniProt Q61056 1-793) | binds | binds
TRPC5 channel (Transient Receptor Potential Cation channel 5) (from UniProt Q9QX29 1-975) |  | binds
